PubChem BioAssay AID504784, Drosophila RNAi Screening Center, 2011
Screen: 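Fly genes whose silencing alters how much lipid cells keep in droplets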 (primary screen). Cells: Drosophila Kc167 embryonic cells. Reagents: long dsRNA against Drosophila genes, about 250 ng dsRNA per well. Time to read-out: 4 days. Conditions: cells fed 400 µM oleic acid bound to BSA. Measurement: 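Microscope images give a droplet-to-nucleus area ratio, taken as log and converted to a screen-wide B-score; higher values mean greater lipid storage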. Scale: droplet/nuclear area B-score: higher = more stored lipid (overstorage).
In all, the deposit lists about 17,000 reagents; this is an unselected part of those with a known target gene and a result. 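Each column is one replicate's B-score; the combined score over replicates was not deposited, so single values may mislead.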 A plus sign joins genes that one reagent is predicted to hit.

| predicted target | DRSC id | droplet/nuclear area B-score, replicate 1 | droplet/nuclear area B-score, replicate 2 | droplet/nuclear area B-score, replicate 3 |
| --- | --- | --- | --- | --- |
| RluA-1 (GeneID 34438) | DRSC02240 | -1.24 | -1.98 | – |
| RluA-1 (GeneID 34438) | DRSC03060 | -2.17 | -0.986 | – |
| Ddrgk1 (GeneID 42516) | DRSC15897 | 2.64 | 0.911 | – |
| CG44325 (GeneID 31831) | DRSC18423 | -1.57 | 0.538 | – |
| CG8765 (GeneID 40147) | DRSC11041 | 0.604 | -0.161 | – |
| CG8765 (GeneID 40147) | DRSC23043 | -0.174 | 0.59 | – |
| MRG15 (GeneID 41850) | DRSC16731 | 0.322 | -4.46 | – |
| FarO (GeneID 45707) | DRSC18475 | 0.042 | -0.571 | – |
| CG1578 (GeneID 32135) | DRSC19729 | -0.125 | 0.0891 | 0.956 |
| mbm + CG11555 | DRSC00315 | 1.8 | -3.87 | – |
| CG6966 (GeneID 41816) | DRSC16156 | -0.0212 | -0.377 | – |
| CG4213 (GeneID 33209) | DRSC00641 | -0.148 | 0.0926 | – |
| CG17974 (GeneID 37441) | DRSC04299 | 2.58 | 0.193 | – |
| CG13461 (GeneID 39635) | DRSC10008 | -1.24 | -0.229 | – |
| CG13928 (GeneID 38195) | DRSC08397 | 0.24 | -2.25 | – |
| CG5421 (GeneID 34661) | DRSC02858 | 0.415 | -1.37 | – |
| Mcm2 (GeneID 40973) | DRSC16734 | 0.035 | 3.14 | – |
| Prp3 (GeneID 40172) | DRSC10912 | 0.225 | -1.92 | – |
| PCID2 (GeneID 39306) | DRSC10822 | 0.742 | 5.45 | – |
| WRNexo (GeneID 42208) | DRSC16278 | -0.809 | 0.91 | – |
| CG8141 (GeneID 41622) | DRSC16387 | 0.419 | -0.0239 | – |
| PI31 (GeneID 36277) | DRSC07306 | 0.638 | 1.19 | – |
| CG14070 (GeneID 34508) | DRSC02373 | -1.16 | -0.43 | – |
| PIG-F (GeneID 40139) | DRSC11069 | -0.184 | -1.23 | – |
| Cyp4ad1 (GeneID 35821) | DRSC07369 | -0.518 | 0.587 | – |
| beta3GalTII (GeneID 35848) | DRSC07253 | -2.77 | -0.501 | – |
| Nadsyn (GeneID 32328) | DRSC20222 | 1.45 | -1.16 | 0.732 |
| CG12075 (GeneID 31815) | DRSC17801 | -2.75 | 1.47 | -0.108 |
| htl (GeneID 42160) | DRSC16968 | -0.382 | 0.627 | – |
| CG30060 (GeneID 246426) | DRSC05419 | -0.604 | 1.55 | – |
| Cyp9b1 (GeneID 35634) | DRSC07389 | 1.06 | 0.171 | – |
| CG4382 (GeneID 34279) | DRSC02743 | 0.0937 | 0.63 | – |
| Adgf-E (GeneID 36627) | DRSC05973 | 1.08 | 1.95 | – |
| CG17472 (GeneID 35320) | DRSC02622 | -1.87 | -2.2 | – |
| rn (GeneID 40879) | DRSC12500 | -2.1 | -1.28 | – |
| rn (GeneID 40879) | DRSC12543 | -1.41 | -0.365 | – |
| rn (GeneID 40879) | DRSC12544 | 2.52 | 1.84 | – |
| rn (GeneID 40879) | DRSC12546 | -1.28 | 0.0571 | – |
| rn (GeneID 40879) | DRSC22291 | 1.85 | 2.24 | – |
| UbcE2M (GeneID 38916) | DRSC10828 | -0.761 | 0.344 | – |
| CG42662 + CG30080 | DRSC05571 | -2.88 | -0.0881 | – |
| CG34355 (GeneID 42820) | DRSC13639 | 0 | -1.3 | – |
| CG34355 (GeneID 42820) | DRSC14520 | -0.116 | -0.0309 | – |
| CG34355 (GeneID 42820) | DRSC14668 | -0.918 | 0.263 | – |
| CG34355 (GeneID 42820) | DRSC21687 | 0.116 | -0.00303 | – |
| CG4198 (GeneID 31445) | DRSC18354 | 0.125 | 0.0029 | 0.359 |
| Tlk (GeneID 318206) | DRSC17731 | 1.16 | 0.187 | – |
| Tlk (GeneID 318206) | DRSC17835 | -0.126 | – | – |
| Tlk (GeneID 318206) | DRSC22924 | -4.16 | -2.95 | – |
| Tlk (GeneID 318206) | DRSC22926 | -3.66 | -0.0238 | – |
| Tlk (GeneID 318206) | DRSC22938 | 0.506 | -0.967 | – |
| Tlk (GeneID 318206) | DRSC23163 | -1.15 | -1.44 | – |
| alphaTub84B (GeneID 40848) | DRSC12622 | 0.396 | -1.77 | – |
| CG14322 (GeneID 42124) | DRSC14801 | -0.0483 | 2.19 | – |
| Prosbeta5R1 (GeneID 37690) | DRSC04581 | 1.18 | 1.28 | – |
| CG9344 (GeneID 37372) | DRSC04541 | -0.23 | 0.259 | – |
| RpS28a (GeneID 43564) | DRSC15064 | 0.81 | -0.0273 | – |
| Icmt (GeneID 39478) | DRSC09834 | -0.0643 | -0.0561 | – |
| CG8852 (GeneID 33577) | DRSC00719 | 0.0391 | -0.865 | – |
| Nufip (GeneID 40043) | DRSC10397 | 0.776 | 0.0075 | -1.74 |
| CG15449 (GeneID 33079) | DRSC20521 | 0.158 | 0.494 | – |
| Lsd-2 (GeneID 32437) | DRSC20143 | -1.84 | -3.61 | -1.48 |
| Grip163 (GeneID 39365) | DRSC10538 | -0.406 | 0.13 | – |
| CG15210 (GeneID 50323) | DRSC19656 | -1.11 | 0.469 | -0.739 |
| Fili (GeneID 5740472) | DRSC04132 | 0.768 | 0.701 | – |
| Fili (GeneID 5740472) | DRSC04445 | -1.19 | -0.952 | – |
| CG3902 (GeneID 40059) | DRSC10387 | -0.437 | 0.161 | – |
| Mcm6 (GeneID 31603) | DRSC18680 | -0.0981 | 0.344 | -0.0457 |
| CG14253 (GeneID 43243) | DRSC14748 | 0.627 | -0.523 | – |
| Top2 (GeneID 35225) | DRSC03459 | 0.219 | 0.0102 | – |
| trem (GeneID 42392) | DRSC15575 | 1.58 | -0.155 | – |
| Surf6 (GeneID 42370) | DRSC15588 | 0.513 | -3.61 | – |
| Cyp4p1 (GeneID 45524) | DRSC07372 | 0.143 | 0.577 | – |
| CG4577 (GeneID 33291) | DRSC00658 | -0.0611 | -0.683 | – |
| CG42449 (GeneID 31486) | DRSC18084 | -0.562 | 0.174 | 0.893 |
| Xpc (GeneID 36697) | DRSC07654 | -1.34 | – | – |
| Vha68-2 (GeneID 45012) | DRSC02721 | -0.374 | 0.0904 | – |
| YL-1 (GeneID 34516) | DRSC02765 | 0.641 | -2.2 | – |
| RpS18 (GeneID 37292) | DRSC07540 | 1.33 | 1.25 | – |
| stwl (GeneID 39581) | DRSC11400 | 4.27 | -0.384 | 1.74 |
| CG11357 (GeneID 38561) | DRSC08183 | 1.67 | 1.71 | – |
| alpha-Man-IIb (GeneID 41913) | DRSC16898 | -0.137 | 3.56 | – |
| Br140 (GeneID 35648) | DRSC06755 | -3.59 | -4.93 | – |
| Tsp2A (GeneID 31080) | DRSC18584 | -0.0427 | -1.36 | – |
| CG14309 (GeneID 42212) | DRSC14788 | 0.31 | 0.111 | – |
| CG12360 (retired record) (GeneID 41603) | DRSC14505 | 1.98 | 1.94 | – |
| fax (GeneID 39826) | DRSC11345 | 0.00509 | 0.529 | 1.38 |
| Wnt10 (GeneID 34011) | DRSC02797 | -0.00942 | -1.52 | – |
| CG11134 (GeneID 32334) | DRSC19384 | -0.653 | -0.518 | – |
| PPP1R15 (GeneID 37820) | DRSC04422 | 8.13 | 7.98 | – |
| rdx (GeneID 41704) | DRSC14526 | 1.63 | 0.0899 | – |
| rdx (GeneID 41704) | DRSC16580 | -0.796 | -0.275 | – |
| rdx (GeneID 41704) | DRSC23120 | 0.972 | 0.553 | – |
| Acp98AB (retired record) (GeneID 44933) | DRSC21837 | -0.674 | 0.334 | – |
| ttm50 (GeneID 31266) | DRSC18587 | -3.15 | – | – |
| CG9692 (GeneID 39865) | DRSC11091 | -0.406 | -1.91 | – |
| CG9672 (GeneID 32651) | DRSC20201 | -1.31 | -1.2 | – |
| EMC3 (GeneID 34479) | DRSC02989 | 0.762 | -0.811 | – |
| CG13455 (GeneID 39667) | DRSC10002 | 0.109 | 0.353 | – |
| CG5805 (GeneID 42950) | DRSC15878 | 0.81 | -0.549 | – |
| CheB53a (GeneID 3346205) | DRSC06625 | -0.44 | 2.86 | – |
| Ppn (GeneID 43872) | DRSC15328 | -2.74 | 0.795 | – |
| Spf45 (GeneID 3355114) | DRSC03826 | -0.0887 | 0.504 | – |
| CG12730 (GeneID 31466) | DRSC17885 | -0.259 | -0.933 | – |
| CG44098 (GeneID 40590) | DRSC12214 | -1.59 | -0.681 | -0.94 |
| CG44098 (GeneID 40590) | DRSC12327 | 0.35 | 1.55 | – |

Part of the list above in another layout:
CG17472 (GeneID 35320) [DRSC02622]
- droplet/nuclear area B-score, replicate 1: -1.87
- droplet/nuclear area B-score, replicate 2: -2.2

rn (GeneID 40879) [DRSC12500]
- droplet/nuclear area B-score, replicate 1: -2.1
- droplet/nuclear area B-score, replicate 2: -1.28

rn (GeneID 40879) [DRSC12543]
- droplet/nuclear area B-score, replicate 1: -1.41
- droplet/nuclear area B-score, replicate 2: -0.365

rn (GeneID 40879) [DRSC12544]
- droplet/nuclear area B-score, replicate 1: 2.52
- droplet/nuclear area B-score, replicate 2: 1.84
